The record followed here is patent US20160264628 (published 2016).

This data set can be described thus: general procedure: peptide synthesis; BOP-Cl; isobutyl chloroformate; pivalic acid chloride; oxalyl chloride (activati). The note with it: lipidation step.

For the substance Micafungin, the step yield is given as 76% (NEt3 salt, run 1); 54% (NEt3 salt, run 2); “=66%” (Na salt).
